Source: patent US6500821B1, “4-amino-1-aryl-1,5-dihydropyrrol-2-ones and process for making” (Arzneimittelwerk Dresden GmbH, priority 1999, dated 2002)

Test system: Vogel Conflict Test
Experiment: Vogel Conflict Test
Format: in vivo, rat
Excerpt: In this model, continuous access to drinking water is withheld from rats for a certain time. After this period, free access is given to drinking water, but is coupled with a mild electrical stimulation. The conflict for the animals is between accepting the electrical stimulation or going without a drink.
The reactions to a conflict situation of this type are similar to the secondary phenomena of anxiety in man. The resulting avoidance reactions can be suppressed by anxiolytic substances. As a measure of the anxiolytic action, the number of tolerated current pulses of the animals treated with the test substance is assessed in comparison to the vehicle-treated control group.

How did the therapeutic index turn out when `CN1C(=O)CN=C(c2ccccc2)c2cc(Cl)ccc21` [Diazepam, diazepam] was run?
Its therapeutic index is 13.
